1 sequence from US11555055B2 (The Regents of the University of California, priority 2017, dated 2023) can be followed below.

Plain letter strings leave the end groups untold.

This data set is described as follows: peptide synthesis. As to conditions: whole synthesis, HPLC.

As for ACSWWSIHLCG, the “purity (crude or final not stated)” value was “˜95%”.
